No constants are given. Whether binding was seen depends on the method and setting. Binding seen in cells or lysates may run through a third protein. Some entries that bind do so weakly or less than the wild type.
Molecular target: Flag-FNDC3B, full-length (fibronectin type III domain containing 3B) (human) (UniProt Q53EP0)
Assay: co-IP; lysates from Huh7 cells transfected with Flag-FNDC3B, IP with anti-Flag

By UniProt entry, the sequences of proteins in these tests, tags left out.
UniProt Q53EP0: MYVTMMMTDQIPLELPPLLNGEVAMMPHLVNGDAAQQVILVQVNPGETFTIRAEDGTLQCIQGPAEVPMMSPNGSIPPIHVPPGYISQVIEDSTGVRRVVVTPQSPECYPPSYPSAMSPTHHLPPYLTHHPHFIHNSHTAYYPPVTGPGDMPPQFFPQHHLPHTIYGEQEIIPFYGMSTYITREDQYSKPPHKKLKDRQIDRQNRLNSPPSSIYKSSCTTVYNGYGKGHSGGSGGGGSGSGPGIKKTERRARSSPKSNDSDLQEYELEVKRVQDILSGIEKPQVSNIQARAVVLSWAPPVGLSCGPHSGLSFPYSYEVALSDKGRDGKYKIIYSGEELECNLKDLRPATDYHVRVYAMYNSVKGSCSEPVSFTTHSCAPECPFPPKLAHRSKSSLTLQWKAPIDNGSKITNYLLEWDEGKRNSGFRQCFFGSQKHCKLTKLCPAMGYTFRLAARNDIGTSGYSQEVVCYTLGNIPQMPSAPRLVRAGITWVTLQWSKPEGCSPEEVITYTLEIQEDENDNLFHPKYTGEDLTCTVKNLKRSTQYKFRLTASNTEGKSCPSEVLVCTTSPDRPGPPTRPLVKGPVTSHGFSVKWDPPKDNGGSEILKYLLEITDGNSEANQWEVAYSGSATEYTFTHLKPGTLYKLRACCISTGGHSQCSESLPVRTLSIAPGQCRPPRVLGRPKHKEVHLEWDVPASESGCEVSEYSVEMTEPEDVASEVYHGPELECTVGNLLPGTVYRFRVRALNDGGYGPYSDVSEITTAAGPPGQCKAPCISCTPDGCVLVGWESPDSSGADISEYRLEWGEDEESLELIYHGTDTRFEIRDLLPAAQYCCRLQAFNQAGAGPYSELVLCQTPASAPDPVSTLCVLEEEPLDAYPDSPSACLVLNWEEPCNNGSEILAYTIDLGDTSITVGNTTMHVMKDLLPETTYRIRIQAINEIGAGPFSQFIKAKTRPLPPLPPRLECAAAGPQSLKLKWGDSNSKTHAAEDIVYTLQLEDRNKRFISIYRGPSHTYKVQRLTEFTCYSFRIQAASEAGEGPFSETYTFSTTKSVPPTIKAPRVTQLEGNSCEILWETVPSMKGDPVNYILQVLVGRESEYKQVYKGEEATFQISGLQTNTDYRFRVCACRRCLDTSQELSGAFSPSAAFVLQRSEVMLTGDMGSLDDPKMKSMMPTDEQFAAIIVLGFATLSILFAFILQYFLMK
UniProt P07355: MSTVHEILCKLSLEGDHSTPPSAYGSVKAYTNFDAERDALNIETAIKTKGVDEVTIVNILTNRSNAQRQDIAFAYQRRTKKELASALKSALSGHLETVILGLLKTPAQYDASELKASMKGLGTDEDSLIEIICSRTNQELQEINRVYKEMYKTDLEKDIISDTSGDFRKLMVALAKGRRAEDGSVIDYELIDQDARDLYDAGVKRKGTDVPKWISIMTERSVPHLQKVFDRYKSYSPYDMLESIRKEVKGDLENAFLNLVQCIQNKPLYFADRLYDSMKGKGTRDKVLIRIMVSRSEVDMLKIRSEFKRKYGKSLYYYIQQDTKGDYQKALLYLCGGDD

phosphorylated annexin A2 (phosphorylated ANXA2) (from UniProt P07355 1-339)
binding: binds

From PMC5226524
